Results from publication PMC8405816.

Protein sequences, listed by entry. Tags and fused reporters are not part of them.
UniProt P13010: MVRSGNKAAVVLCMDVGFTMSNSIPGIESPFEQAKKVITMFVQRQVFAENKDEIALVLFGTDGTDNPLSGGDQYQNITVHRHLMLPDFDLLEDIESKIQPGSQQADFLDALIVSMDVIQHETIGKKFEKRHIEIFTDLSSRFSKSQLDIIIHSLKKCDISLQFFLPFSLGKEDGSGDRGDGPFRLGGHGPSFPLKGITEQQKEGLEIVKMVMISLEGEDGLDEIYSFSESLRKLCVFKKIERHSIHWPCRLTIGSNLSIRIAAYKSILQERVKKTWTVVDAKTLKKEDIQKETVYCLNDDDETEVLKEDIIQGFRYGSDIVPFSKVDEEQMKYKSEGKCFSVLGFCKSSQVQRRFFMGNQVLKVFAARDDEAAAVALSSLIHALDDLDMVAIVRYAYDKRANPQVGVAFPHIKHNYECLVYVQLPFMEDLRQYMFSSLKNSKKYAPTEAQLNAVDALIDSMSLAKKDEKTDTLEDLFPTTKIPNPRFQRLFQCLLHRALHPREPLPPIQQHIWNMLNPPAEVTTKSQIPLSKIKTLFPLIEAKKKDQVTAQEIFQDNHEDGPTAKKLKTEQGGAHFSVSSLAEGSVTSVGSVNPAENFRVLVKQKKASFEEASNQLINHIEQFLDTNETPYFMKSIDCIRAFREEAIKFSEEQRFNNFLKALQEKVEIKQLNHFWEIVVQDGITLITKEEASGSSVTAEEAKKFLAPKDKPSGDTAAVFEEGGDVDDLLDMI
UniProt P12956: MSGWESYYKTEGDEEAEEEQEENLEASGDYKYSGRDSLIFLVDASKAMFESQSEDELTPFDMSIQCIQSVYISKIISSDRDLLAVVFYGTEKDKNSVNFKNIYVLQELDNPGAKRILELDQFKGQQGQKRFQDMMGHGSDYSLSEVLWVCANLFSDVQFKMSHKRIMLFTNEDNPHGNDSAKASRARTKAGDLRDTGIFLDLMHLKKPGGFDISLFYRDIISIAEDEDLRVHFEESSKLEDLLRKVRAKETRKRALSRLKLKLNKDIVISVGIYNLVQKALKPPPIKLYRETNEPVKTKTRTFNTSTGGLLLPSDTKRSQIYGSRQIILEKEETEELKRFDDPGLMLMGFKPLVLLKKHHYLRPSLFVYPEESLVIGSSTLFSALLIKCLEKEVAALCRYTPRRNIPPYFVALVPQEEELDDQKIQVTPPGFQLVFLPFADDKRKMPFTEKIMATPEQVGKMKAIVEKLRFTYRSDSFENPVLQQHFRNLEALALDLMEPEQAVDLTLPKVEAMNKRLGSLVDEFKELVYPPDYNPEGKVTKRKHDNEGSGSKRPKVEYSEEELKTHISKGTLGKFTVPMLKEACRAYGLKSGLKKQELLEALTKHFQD

Key:
[1] = molecular target: T1, VAV2 (endogenous) (human (endogenous in KYSE30, KYSE150, KYSE450)) (UniProt P52735); assay: affinity purification with mass spectrometry; lysates of natural KYSE30 and KYSE450 cells, immunoprecipitated with anti-VAV2 antibody, mass spectrometry
T1 sequence: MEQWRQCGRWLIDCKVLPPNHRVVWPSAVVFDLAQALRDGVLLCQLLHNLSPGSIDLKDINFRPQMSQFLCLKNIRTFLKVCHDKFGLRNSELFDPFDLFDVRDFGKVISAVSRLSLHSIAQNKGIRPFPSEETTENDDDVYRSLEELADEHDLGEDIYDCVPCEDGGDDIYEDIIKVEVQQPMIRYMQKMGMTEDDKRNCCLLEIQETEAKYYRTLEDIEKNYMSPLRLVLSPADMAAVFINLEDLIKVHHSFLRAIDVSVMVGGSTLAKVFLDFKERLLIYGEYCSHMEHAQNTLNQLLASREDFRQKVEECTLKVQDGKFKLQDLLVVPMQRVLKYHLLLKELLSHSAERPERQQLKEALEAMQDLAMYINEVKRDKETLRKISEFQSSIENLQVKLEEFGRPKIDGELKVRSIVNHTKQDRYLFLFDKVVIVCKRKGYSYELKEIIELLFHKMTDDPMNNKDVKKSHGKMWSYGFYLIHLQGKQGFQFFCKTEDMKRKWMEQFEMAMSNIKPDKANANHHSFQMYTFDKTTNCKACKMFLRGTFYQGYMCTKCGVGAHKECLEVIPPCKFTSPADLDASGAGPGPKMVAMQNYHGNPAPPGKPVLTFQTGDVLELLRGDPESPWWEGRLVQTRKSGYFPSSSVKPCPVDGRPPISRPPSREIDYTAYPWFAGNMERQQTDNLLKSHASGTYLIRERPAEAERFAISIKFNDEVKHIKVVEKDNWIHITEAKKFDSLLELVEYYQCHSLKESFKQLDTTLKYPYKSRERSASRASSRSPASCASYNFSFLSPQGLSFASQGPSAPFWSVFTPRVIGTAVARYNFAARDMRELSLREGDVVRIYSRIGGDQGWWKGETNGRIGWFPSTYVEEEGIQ

[2] = molecular target: T2, FLAG-tagged VAV2 (UniProt P52735); assay: affinity purification with mass spectrometry; lysates of KYSE150 cells overexpressing FLAG-VAV2, immunoprecipitated with anti-FLAG antibody (IgG as negative control), mass spectrometry
T2 sequence: T1 sequence

| Substance | binding [1] | binding [2] |
| --- | --- | --- |
| Ku80 (endogenous) (from UniProt P13010 1-732) | binds | binds |
| Ku70 (endogenous) (from UniProt P12956 1-609) | binds | binds |

No constants are given. Whether binding was seen depends on the method and setting. Binding seen in cells or lysates may run through a third protein. These calls come from enrichment with a bait or labelling near it, and not all partners need be listed. For some of these results: Sequences can lack the tags named with a protein.
